# Measured values: the supplement of paper PMC7666118
# Protein sequences, listed by entry. Tags and fused reporters are not part of them. Lines headed by an entry give the natural chain unless they say otherwise; changes in a name come on top.
# UniProt Q14684: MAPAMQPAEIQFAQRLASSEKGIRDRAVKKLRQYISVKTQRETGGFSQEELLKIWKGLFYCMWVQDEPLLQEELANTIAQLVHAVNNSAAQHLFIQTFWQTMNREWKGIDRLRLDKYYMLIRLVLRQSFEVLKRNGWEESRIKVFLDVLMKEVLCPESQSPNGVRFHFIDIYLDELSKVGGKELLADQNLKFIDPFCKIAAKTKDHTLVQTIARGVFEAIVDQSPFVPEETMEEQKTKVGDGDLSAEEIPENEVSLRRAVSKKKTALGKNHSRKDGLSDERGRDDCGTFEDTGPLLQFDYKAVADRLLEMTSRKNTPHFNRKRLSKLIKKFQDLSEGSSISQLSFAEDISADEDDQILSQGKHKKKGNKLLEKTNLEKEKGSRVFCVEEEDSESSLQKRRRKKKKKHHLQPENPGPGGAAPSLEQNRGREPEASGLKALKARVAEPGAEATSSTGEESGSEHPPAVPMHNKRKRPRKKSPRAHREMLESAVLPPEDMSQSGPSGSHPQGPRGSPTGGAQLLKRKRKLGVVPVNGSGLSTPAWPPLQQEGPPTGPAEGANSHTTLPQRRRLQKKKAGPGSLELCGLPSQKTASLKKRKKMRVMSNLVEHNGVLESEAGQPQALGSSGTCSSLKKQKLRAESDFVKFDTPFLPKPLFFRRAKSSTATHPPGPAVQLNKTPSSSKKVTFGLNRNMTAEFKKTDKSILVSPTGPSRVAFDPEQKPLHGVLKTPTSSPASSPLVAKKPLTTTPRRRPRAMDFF
# UniProt Q8WWV3: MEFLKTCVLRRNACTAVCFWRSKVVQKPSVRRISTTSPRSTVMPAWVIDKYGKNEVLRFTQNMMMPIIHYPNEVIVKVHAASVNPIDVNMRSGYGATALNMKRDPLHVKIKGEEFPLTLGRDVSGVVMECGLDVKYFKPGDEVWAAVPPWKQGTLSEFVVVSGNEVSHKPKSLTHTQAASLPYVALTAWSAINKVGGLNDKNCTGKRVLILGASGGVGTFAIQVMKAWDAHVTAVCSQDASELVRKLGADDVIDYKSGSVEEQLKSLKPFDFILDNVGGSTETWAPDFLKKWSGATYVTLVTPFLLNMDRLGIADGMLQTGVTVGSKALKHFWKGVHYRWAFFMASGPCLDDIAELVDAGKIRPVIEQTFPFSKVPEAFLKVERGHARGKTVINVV
# UniProt Q9NQL2, whole entry: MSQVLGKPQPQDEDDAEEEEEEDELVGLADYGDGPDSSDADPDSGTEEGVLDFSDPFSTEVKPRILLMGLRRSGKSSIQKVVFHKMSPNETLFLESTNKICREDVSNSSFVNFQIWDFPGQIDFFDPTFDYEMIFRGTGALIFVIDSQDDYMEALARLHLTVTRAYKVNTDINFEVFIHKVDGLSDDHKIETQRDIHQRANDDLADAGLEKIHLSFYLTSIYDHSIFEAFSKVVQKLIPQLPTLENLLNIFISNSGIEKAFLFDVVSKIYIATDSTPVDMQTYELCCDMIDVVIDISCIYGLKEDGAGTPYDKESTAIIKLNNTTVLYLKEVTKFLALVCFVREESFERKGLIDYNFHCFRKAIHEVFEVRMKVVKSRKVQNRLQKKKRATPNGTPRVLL
# UniProt Q5VWQ0: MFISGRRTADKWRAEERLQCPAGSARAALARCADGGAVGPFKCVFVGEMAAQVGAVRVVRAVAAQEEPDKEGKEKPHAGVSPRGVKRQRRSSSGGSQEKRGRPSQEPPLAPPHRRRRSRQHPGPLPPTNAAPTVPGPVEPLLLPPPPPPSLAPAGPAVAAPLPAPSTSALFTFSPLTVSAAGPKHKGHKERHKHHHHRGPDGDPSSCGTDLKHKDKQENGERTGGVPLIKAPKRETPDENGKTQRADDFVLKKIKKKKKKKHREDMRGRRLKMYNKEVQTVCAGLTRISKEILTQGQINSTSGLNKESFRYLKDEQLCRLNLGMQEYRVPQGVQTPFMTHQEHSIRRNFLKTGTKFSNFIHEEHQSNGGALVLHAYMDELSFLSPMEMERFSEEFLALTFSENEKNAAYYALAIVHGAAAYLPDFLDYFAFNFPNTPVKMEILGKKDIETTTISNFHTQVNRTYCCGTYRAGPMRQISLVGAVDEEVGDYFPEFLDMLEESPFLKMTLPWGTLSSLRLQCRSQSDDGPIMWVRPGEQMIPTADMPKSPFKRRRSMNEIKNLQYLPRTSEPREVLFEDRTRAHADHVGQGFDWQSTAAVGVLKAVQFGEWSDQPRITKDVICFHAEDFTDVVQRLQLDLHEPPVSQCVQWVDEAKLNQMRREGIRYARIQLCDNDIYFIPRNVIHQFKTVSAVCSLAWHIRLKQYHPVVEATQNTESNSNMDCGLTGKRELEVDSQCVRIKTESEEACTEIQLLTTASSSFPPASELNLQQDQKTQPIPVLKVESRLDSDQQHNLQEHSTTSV
# UniProt Q14141: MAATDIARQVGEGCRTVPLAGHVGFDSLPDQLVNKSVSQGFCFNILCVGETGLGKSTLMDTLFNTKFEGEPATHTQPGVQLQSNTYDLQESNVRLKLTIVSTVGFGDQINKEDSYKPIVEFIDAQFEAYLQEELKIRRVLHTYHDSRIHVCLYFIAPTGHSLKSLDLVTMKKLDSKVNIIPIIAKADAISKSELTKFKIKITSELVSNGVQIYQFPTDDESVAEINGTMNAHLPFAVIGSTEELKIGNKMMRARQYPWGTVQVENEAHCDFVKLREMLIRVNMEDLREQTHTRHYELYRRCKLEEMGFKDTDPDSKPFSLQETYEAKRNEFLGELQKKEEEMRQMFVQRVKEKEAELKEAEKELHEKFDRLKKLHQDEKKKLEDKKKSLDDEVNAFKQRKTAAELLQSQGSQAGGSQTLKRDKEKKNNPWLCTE
# UniProt Q969E2: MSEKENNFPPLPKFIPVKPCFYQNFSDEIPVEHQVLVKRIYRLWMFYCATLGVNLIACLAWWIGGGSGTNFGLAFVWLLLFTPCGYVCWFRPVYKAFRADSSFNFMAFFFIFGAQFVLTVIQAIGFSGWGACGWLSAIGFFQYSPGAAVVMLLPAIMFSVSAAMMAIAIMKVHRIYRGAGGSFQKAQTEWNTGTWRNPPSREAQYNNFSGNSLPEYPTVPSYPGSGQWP
# UniProt Q9Y6B6: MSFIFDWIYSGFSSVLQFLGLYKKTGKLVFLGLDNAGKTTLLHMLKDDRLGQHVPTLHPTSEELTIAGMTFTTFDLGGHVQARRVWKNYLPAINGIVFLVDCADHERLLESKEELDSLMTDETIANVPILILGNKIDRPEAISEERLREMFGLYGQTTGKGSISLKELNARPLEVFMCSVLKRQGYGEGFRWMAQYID
# UniProt O14828: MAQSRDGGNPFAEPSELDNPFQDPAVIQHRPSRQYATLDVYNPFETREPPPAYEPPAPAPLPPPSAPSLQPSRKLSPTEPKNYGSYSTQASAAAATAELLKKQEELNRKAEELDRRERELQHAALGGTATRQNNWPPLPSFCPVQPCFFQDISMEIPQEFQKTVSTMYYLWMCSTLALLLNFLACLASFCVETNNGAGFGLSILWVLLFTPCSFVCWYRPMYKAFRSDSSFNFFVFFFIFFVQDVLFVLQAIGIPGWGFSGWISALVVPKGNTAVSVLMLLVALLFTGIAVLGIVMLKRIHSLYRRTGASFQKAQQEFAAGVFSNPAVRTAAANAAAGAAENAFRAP
# UniProt Q01826: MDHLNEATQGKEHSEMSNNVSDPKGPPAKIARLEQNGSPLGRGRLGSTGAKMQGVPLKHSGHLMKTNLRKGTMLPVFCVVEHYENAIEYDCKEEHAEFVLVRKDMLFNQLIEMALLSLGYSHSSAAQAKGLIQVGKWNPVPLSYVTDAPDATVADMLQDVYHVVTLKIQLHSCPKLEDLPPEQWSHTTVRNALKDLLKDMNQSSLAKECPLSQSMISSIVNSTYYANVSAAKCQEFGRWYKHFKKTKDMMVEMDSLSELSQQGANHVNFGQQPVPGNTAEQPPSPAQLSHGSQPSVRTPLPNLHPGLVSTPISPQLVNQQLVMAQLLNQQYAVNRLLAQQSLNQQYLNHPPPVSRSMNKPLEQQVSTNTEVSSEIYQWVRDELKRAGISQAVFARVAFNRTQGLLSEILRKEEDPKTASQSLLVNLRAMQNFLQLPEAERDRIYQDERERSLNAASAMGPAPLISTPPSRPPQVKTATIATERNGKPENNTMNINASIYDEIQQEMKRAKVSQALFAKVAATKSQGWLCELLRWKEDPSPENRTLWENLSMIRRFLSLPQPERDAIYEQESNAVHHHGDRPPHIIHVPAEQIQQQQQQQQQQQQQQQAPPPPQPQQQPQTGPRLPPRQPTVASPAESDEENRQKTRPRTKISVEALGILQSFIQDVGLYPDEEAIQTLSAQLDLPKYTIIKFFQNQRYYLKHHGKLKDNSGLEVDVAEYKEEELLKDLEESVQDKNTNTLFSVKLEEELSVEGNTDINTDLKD
# UniProt O95977: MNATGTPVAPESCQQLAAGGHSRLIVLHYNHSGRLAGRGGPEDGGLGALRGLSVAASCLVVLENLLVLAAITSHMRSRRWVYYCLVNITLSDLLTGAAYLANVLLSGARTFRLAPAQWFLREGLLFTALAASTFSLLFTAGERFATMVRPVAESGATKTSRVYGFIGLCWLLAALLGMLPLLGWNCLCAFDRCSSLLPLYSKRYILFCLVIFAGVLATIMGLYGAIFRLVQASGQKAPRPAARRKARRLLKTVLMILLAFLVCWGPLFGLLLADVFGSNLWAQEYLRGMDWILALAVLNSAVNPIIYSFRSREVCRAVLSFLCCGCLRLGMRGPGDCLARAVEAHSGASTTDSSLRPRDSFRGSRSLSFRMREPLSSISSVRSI
# UniProt O43819: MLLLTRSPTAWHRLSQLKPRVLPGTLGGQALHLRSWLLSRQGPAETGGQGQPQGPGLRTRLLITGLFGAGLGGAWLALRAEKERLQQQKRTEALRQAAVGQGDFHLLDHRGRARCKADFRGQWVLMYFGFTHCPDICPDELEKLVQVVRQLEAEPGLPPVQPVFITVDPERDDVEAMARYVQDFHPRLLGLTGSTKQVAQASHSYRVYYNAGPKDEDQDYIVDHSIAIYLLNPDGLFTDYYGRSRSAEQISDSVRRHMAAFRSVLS
# UniProt Q9Y6Y8: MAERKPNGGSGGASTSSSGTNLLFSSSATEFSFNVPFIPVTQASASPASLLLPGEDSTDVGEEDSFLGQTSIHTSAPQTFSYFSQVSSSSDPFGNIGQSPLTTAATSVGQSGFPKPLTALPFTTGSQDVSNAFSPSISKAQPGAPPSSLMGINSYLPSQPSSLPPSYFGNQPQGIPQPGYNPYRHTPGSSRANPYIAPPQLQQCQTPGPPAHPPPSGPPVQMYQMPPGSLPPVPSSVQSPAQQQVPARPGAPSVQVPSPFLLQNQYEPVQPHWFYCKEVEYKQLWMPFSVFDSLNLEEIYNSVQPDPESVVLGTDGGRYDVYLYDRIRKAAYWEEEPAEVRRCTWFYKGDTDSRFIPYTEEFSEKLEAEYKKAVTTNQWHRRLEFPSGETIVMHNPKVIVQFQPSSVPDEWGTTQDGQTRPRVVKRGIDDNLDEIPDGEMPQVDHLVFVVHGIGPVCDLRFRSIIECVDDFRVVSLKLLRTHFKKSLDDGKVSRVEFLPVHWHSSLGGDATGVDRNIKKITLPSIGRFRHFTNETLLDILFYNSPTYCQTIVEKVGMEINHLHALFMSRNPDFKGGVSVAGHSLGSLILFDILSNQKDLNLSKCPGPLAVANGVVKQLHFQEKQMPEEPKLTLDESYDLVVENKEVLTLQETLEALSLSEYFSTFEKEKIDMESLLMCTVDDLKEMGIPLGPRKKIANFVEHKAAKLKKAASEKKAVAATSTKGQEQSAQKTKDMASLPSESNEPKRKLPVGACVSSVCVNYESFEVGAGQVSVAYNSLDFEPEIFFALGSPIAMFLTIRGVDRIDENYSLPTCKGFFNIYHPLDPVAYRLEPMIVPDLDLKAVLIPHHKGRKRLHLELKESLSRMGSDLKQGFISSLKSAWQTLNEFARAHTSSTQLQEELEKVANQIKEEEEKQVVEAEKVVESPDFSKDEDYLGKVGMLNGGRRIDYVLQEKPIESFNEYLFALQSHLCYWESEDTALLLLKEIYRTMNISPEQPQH
# UniProt Q9H4L4: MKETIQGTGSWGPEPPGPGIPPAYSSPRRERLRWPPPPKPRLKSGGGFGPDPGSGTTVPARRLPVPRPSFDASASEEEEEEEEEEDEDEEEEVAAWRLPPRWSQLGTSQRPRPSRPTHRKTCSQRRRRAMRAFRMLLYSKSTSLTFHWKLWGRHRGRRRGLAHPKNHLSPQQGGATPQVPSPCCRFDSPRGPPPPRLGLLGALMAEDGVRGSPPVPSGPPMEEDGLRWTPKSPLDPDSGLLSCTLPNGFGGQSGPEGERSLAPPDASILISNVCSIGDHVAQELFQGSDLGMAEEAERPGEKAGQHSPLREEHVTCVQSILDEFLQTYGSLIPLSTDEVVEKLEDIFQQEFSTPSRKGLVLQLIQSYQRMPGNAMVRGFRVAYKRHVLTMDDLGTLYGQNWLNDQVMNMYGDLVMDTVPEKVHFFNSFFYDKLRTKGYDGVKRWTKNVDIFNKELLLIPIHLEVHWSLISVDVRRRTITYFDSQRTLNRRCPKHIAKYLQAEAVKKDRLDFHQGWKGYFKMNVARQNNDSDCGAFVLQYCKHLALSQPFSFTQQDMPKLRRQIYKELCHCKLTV
# The list shows a part of the results.
# Compound: COc1ccc(Cn2ccc3cc(C)c(C(=O)NO)cc32)cc1
# Assay: dose-dependent thermal stabilisation call (2D-TPP, DLPTP, 10% FDR) (binary (1 = stabilised)); higher = stabilised by the compound
# Conditions: system: HL-60 intact cells; concentration range 0.04-10 µM
# Method: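 2D thermal proteome profiling in intact HL-60 cells treated with BRD-3811 (0, 0.04, 0.29, 2, 10 uM) for 90 min at 37 C, then heated 3 min at one of 12 temperatures (42-63.9 C). Soluble protein was quantified by TMT10 MS. The value is the DLPTP call of the paper: dose-dependent thermal stabilisation over all temperatures at 10% FDR (F-test of a dose-response against a flat model); one experiment, one call per tested protein.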
row,Target,dose-dependent thermal stabilisation call
1,RRP1B (UniProt Q14684),inactive: 0
2,SCAMP1 (UniProt O15126),inactive: 0
3,RTN4IP1 (UniProt Q8WWV3),inactive: 0
4,RPS16 (UniProt P62249),inactive: 0
5,SEC62 (UniProt Q99442),inactive: 0
6,RPS24 (UniProt P62847),inactive: 0
7,RPL36 (UniProt Q9Y3U8),inactive: 0
8,SAPS3 (UniProt Q5H9R7),inactive: 0
9,SCYE1 (UniProt Q12904),inactive: 0
10,RRAGD (UniProt Q9NQL2),inactive: 0
11,RPL12 (UniProt P30050),inactive: 0
12,RPL24 (UniProt P83731),inactive: 0
13,SEDLP,inactive: 0
14,RSBN1 (UniProt Q5VWQ0),inactive: 0
15,SEC24A (UniProt O95486),inactive: 0
16,SEPT6 (UniProt Q14141),inactive: 0
17,RPL22 (UniProt P35268),inactive: 0
18,SCAMP4 (UniProt Q969E2),inactive: 0

# Some of the entries above in another layout.
row | Target | dose-dependent thermal stabilisation call
16 | SEPT6 (UniProt Q14141) | inactive: 0
17 | RPL22 (UniProt P35268) | inactive: 0

# The list goes on.

row,Target,dose-dependent thermal stabilisation call
1,SAR1B (UniProt Q9Y6B6),inactive: 0
2,RTN3 (UniProt O95197),inactive: 0
3,RPL35 (UniProt P42766),inactive: 0
4,SCAMP3 (UniProt O14828),inactive: 0
5,SART1 (UniProt O43290),inactive: 0
6,SACM1L (UniProt Q9NTJ5),inactive: 0
7,RPS28 (UniProt P62857),inactive: 0
8,SCO1 (UniProt O75880),inactive: 0
9,RPS27A (UniProt P62979),inactive: 0
10,SATB1 (UniProt Q01826),inactive: 0
11,S1PR4 (UniProt O95977),inactive: 0
12,RRP1 (UniProt P56182),inactive: 0
13,RPS3 (UniProt P23396),inactive: 0
14,SCO2 (UniProt O43819),inactive: 0
15,SAFB (UniProt Q15424),inactive: 0
16,RPAP2 (UniProt Q8IXW5),inactive: 0
17,SEC23IP (UniProt Q9Y6Y8),inactive: 0
18,SENP3 (UniProt Q9H4L4),inactive: 0
